Measurements published in PubChem BioAssay (NCATS).
This list was built around the results that the source calls inconclusive (neither active nor inactive); the mix of calls is not that of the screen. For some of these results: Potencies of inconclusive entries are doubtful fits and often do not repeat. Calls of active or inactive are those of the source. Unless noted, calls come from the whole dose curve; as a rule, active = well fitted curve in the direction sought with a large enough effect; inconclusive = small, poorly fitted or top-dose-only effect, or another doubt; inactive = no such curve, though single readings can be large; an effect the other way counts as inactive or inconclusive.

The chains behind the UniProt entries cited, without tags or fusion partners. Where a name states a change or a piece, a line headed by the entry shows the natural chain unless it says otherwise.
UniProt Q03181: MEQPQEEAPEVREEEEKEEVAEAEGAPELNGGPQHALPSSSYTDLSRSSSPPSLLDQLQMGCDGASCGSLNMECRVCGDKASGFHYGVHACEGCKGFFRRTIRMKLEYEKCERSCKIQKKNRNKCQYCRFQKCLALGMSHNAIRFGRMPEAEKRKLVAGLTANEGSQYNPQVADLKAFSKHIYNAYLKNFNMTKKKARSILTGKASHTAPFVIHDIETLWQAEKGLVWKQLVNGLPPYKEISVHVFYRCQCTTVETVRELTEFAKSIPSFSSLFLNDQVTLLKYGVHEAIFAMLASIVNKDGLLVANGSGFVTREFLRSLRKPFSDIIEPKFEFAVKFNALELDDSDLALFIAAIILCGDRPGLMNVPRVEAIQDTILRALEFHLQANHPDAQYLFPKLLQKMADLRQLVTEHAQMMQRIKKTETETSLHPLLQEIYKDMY
UniProt P08659, whole entry, looked up: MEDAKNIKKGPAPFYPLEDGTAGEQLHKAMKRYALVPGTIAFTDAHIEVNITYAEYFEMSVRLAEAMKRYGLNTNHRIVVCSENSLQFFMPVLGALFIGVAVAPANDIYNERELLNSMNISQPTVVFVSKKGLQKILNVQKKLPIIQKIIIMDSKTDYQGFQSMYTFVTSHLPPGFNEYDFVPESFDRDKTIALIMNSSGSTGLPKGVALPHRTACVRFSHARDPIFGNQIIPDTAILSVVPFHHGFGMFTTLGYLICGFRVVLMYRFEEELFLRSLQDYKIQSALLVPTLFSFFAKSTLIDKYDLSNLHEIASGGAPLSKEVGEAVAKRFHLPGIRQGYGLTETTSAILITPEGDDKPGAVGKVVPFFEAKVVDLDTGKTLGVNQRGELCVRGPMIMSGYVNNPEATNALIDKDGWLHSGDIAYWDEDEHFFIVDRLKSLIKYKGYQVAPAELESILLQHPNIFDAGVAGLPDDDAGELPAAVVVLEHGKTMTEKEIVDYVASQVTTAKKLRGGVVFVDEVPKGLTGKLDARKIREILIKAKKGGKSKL
UniProt P01375, whole entry, looked up: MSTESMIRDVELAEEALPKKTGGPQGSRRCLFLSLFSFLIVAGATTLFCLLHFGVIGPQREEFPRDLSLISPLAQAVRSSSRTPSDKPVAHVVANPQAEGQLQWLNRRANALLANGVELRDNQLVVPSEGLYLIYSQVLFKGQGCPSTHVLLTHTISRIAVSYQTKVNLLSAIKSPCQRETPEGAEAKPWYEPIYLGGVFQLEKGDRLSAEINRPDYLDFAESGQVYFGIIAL

Assays:
[1] = Cell Viability - LYMP1-002 - Assay at 24 hr (AID 993); note: % is set by controls: 0 for no effect and ±100 for the full control effect
Outline: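 Viability was judged from intracellular ATP using a luciferase read-out, following a 24-hour compound incubation at 37 C of lymphoblastoid cells seeded at 2500 per well. Concentration-response data were fitted to the Hill equation for AC50.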

[2] = qHTS Assay for Lipid Storage Modulators (AID 1519; calls by dose curve; note: potency is the fitted concentration of half-maximal effect; for activity change, negative = inhibition: % is set by controls: 0 for no effect and ±100 for the full control effect); details: Drosophila S3 cells, BODIPY lipid droplet/cell ratio, laser cytometry, cells loaded with oleic acid; activity change, negative = inhibition: at 57.5 µM (top of the series) unless noted
Outline: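 Cells seeded at 5,000 per well were treated with compounds over a concentration series and loaded with oleic acid (400 uM, as added). Lipid droplet fluorescence (488 nm excitation, 500-530 nm channel) was read by laser-scanning cytometry and normalized to 20 uM Triacsin C.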

[3] = molecular target: Peroxisome proliferator-activated receptor delta (Homo sapiens) (UniProt Q03181); assay: qHTS assay for small molecule antagonists of peroxisome proliferator-activated receptor delta signaling (AID 588535; active = well fitted inhibition curve with a large enough effect in the signal ratio, with a control signal flat, not every such curve was filed as active; inconclusive = small, poorly fitted or top-dose-only effect, or effect the other way, or a change in a side signal; inactive = no such curve, though single readings can be large or run the other way; the % refers to the signal ratio; note: potency is the fitted concentration of half-maximal effect); details: HEK293T PPARd-UAS-bla, beta-lactamase FRET ratio, 18 h; activity change, negative = inhibition: at 76.7 µM (top of the series)
Outline: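 Compounds tested in titration on PPAR-delta-UAS-bla HEK293T cells grown in charcoal/dextran-stripped serum (2%); beta-lactamase activity read via CCF4 emission at 460 and 530 nm.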

[4] = molecular target: Luciferin 4-monooxygenase (Photinus pyralis) (UniProt P08659); assay: Biochemical firefly luciferase enzyme assay for NPC (AID 624030);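 note: purified P. pyralis luciferase at 10 nM with luciferin and ATP substrate; 0% = DMSO and -100% = full luciferase inhibition by PTC124 control; nearly all actives have a fitted effect of over 70% in size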
Outline: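 Counter-screen for direct inhibition of the luciferase enzyme by approved-drug library compounds, run at 10 nM enzyme in 50 mM Tris acetate (final). Luminescence was read within 5 min of enzyme-buffer addition and normalized to PTC124 versus DMSO (0%).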

[5] = qHTS assay for small molecule agonists of the antioxidant response element (ARE) signaling pathway (AID 651741; active = well fitted activation curve with a large enough effect in the signal ratio; inconclusive = small, poorly fitted or top-dose-only effect, or effect the other way, or a change in a side signal; the % refers to the signal ratio; note: potency is the fitted concentration of half-maximal effect); details: HepG2 ARE-bla reporter, beta-lactamase FRET ratio, 16 h; activation: at 96 µM (top of the series)
Outline: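 Beta-lactamase reporter expression driven by the antioxidant response element in HepG2 cells was detected by fluorescence with LiveBLAzer B/G FRET substrate (2 h, room temperature) following 16 h compound treatment at 37 C.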

[6] = molecular target: Tumor necrosis factor (Homo sapiens) (UniProt P01375); assay: qHTS assay to identify small molecules that stimulate Tumor Necrosis Factor-alpha (TNF-alpha) secretion (AID 651757; active = well fitted curve in the direction sought with a large enough effect in the signal ratio; inconclusive = small, poorly fitted or top-dose-only effect, or a change in a side signal; inactive = no such curve, though single readings can be large or run the other way; the % refers to the signal ratio; note: 0% is about no effect); details: Human cells, HTRF 665/615 ratio; activation (TNF-alpha secretion): at 92.2 µM (top of the series)
Outline: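 Using 3000 THP-1 cells per well, compounds and controls were applied for 17 hrs at 37 C. Detection followed with two labeled anti-TNF-alpha antibodies (cryptate donor, XL665 acceptor) for 3 hr at room temperature, measured by TR-FRET.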

[7] = qHTS assay to identify small molecules that stimulate interleukin-8 (IL-8) secretion (AID 651758; active = well fitted activation curve with a large enough effect in the signal ratio; inconclusive = small, poorly fitted or top-dose-only effect, or effect the other way, or a change in a side signal; the % refers to the signal ratio; note: 0% is about no effect); details: HTRF ratio (665/615); activation: at 92.2 µM (top of the series)
Outline: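 Quantitative HTS in THP-1 monocytic cells at 2000 cells per well, with 16 hrs compound incubation at 37 C. IL-8 in the medium was then quantified by HTRF immunoassay, read after 1-3 hrs at room temperature.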

CP203 = assay: qHTS profiling for inhibitors of Plasmodium falciparum proliferation (AID 504749); note: nearly all actives have a fitted effect of over 60% in size; note: potency is the fitted concentration of half-maximal effect;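 for activity, negative = inhibition: 0% = DMSO vehicle and full inhibition = artemisinin control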; details: P. falciparum in erythrocytes, SYBR Green DNA, 72 h; series mostly up to 28.7 µM
Outline: (§1)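 Fluorescence of SYBR Green-bound parasite DNA, read at 485/535 nm, served as the growth measure. Infected erythrocytes were cultured with compound 72 h; artemisinin (0.29 uM) and DMSO wells defined the normalization range.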

CP211 = assay: as above; details: P. falciparum in erythrocytes, SYBR Green DNA, 72 h; series mostly up to 28.7 µM
Outline: as §1

CP215 = assay: as above; details: P. falciparum in erythrocytes, SYBR Green DNA, 72 h; series mostly up to 28.7 µM
Outline: as §1

CP256 = assay: as above; details: P. falciparum in erythrocytes, SYBR Green DNA, 72 h; series mostly up to 28.7 µM
Outline: as §1

CP335 = assay: as above; details: P. falciparum in erythrocytes, SYBR Green DNA, 72 h; series mostly up to 28.7 µM
Outline: as §1

DIV14 = assay: as above; details: P. falciparum in erythrocytes, SYBR Green DNA, 72 h; series mostly up to 28.7 µM
Outline: as §1

DIV30 = assay: as above; details: P. falciparum in erythrocytes, SYBR Green DNA, 72 h; series mostly up to 28.7 µM
Outline: as §1

GB4 = assay: as above; details: P. falciparum in erythrocytes, SYBR Green DNA, 72 h; series mostly up to 28.7 µM
Outline: as §1

PC26 = assay: as above; details: P. falciparum in erythrocytes, SYBR Green DNA, 72 h; series mostly up to 28.7 µM
Outline: as §1

[8] = S16 Schwann cell PMP22 intronic element firefly luciferase assay (AID 624032); note: potency is the fitted concentration of half-maximal effect; nearly all actives have a fitted effect of over 30% in size
Outline: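 Rat S16 Schwann cells stably carrying a PMP22 intronic element-driven Fluc reporter were seeded overnight, then exposed to compounds for 24 h at 37 °C. Luminescence was normalized to PTC124 (positive control) and DMSO (0% activity).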

[9] = S16 Schwann cell PMP22 intronic element beta-lactamase assay (AID 624044; calls by dose curve; note: potency is the fitted concentration of half-maximal effect; nearly all actives have a fitted effect of over 15% in size); details: S16 rat Schwann cells, PMP22 element beta-lactamase FRET, 24 h; ratio activity, negative = inhibition: at 38.3 µM (top of the series) unless noted
Outline: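 Beta-lactamase reporter under a PMP22 intronic regulatory element in stable S16 rat Schwann cells; 24 h compound exposure. 460 nm blue signal normalized between DMSO (0%) and potassium clavulanate, with 535 nm FRET tracking viability; curves classed by r2 and response.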

7G8 = assay: qHTS profiling for inhibitors of Plasmodium falciparum proliferation (AID 504749); note: nearly all actives have a fitted effect of over 60% in size; note: potency is the fitted concentration of half-maximal effect;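 for activity, negative = inhibition: 0% = DMSO vehicle and full inhibition = artemisinin control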; details: P. falciparum in erythrocytes, SYBR Green DNA, 72 h; series mostly up to 28.7 µM
Outline: as §1

AS120 = assay: as above; details: P. falciparum in erythrocytes, SYBR Green DNA, 72 h; series mostly up to 28.7 µM
Outline: as §1

ATS95 = assay: as above; details: P. falciparum in erythrocytes, SYBR Green DNA, 72 h; series mostly up to 28.7 µM
Outline: as §1

CP194 = assay: as above; details: P. falciparum in erythrocytes, SYBR Green DNA, 72 h; series mostly up to 28.7 µM
Outline: as §1

CP217 = assay: as above; details: P. falciparum in erythrocytes, SYBR Green DNA, 72 h; series mostly up to 28.7 µM
Outline: as §1

CP237 = assay: as above; details: P. falciparum in erythrocytes, SYBR Green DNA, 72 h; series mostly up to 28.7 µM
Outline: as §1

CP238 = assay: as above; details: P. falciparum in erythrocytes, SYBR Green DNA, 72 h; series mostly up to 28.7 µM
Outline: as §1

CP247 = assay: as above; details: P. falciparum in erythrocytes, SYBR Green DNA, 72 h; series mostly up to 28.7 µM
Outline: as §1

CP262 = assay: as above; details: P. falciparum in erythrocytes, SYBR Green DNA, 72 h; series mostly up to 28.7 µM
Outline: as §1

CP265 = assay: as above; details: P. falciparum in erythrocytes, SYBR Green DNA, 72 h; series mostly up to 28.7 µM
Outline: as §1

CP266 = assay: as above; details: P. falciparum in erythrocytes, SYBR Green DNA, 72 h; activity, negative = inhibition: at 28.7 µM (top of the series) unless noted
Outline: as §1

CP286 = assay: as above; details: P. falciparum in erythrocytes, SYBR Green DNA, 72 h; series mostly up to 28.7 µM
Outline: as §1

CP291 = assay: as above; details: P. falciparum in erythrocytes, SYBR Green DNA, 72 h; series mostly up to 28.7 µM
Outline: as §1

CP297 = assay: as above; details: P. falciparum in erythrocytes, SYBR Green DNA, 72 h; activity, negative = inhibition: at 28.7 µM (top of the series)
Outline: as §1

CP315 = assay: as above; details: P. falciparum in erythrocytes, SYBR Green DNA, 72 h; series mostly up to 12.8 µM
Outline: as §1

CP325 = assay: as above; details: P. falciparum in erythrocytes, SYBR Green DNA, 72 h; series mostly up to 28.7 µM
Outline: as §1

Dd2 = assay: as above; details: P. falciparum in erythrocytes, SYBR Green DNA, 72 h; series mostly up to 28.7 µM
Outline: as §1

ECU = assay: as above; details: P. falciparum in erythrocytes, SYBR Green DNA, 72 h; series mostly up to 28.7 µM
Outline: as §1

FAB9 = assay: as above; details: P. falciparum in erythrocytes, SYBR Green DNA, 72 h; series mostly up to 28.7 µM
Outline: as §1

HB3 = assay: as above; details: P. falciparum in erythrocytes, SYBR Green DNA, 72 h; series mostly up to 28.7 µM
Outline: as §1

JCK = assay: as above; details: P. falciparum in erythrocytes, SYBR Green DNA, 72 h; series mostly up to 12.8 µM
Outline: as §1

NC(N)=O
inconclusive: Potency [3] 44.7 nM [inhibitor, full curve, poor fit] | Potency [5] 75000 nM [activator, partial curve, poor fit] | activation [7] 18.1% | Potency (DIV14) 16900 nM [activator, partial curve, poor fit]
inactive: Potency [1] | Potency [2] | Potency [4] | Potency [6] | Potency (CP203) | Potency (CP211) | Potency (CP215) | Potency (CP256) | Potency (CP335) | Potency (DIV30) | Potency (GB4) | Potency (PC26)

COc1cc(C2c3cc4c(cc3C(O[C@@H]3OC5COC(c6cccs6)OC5C(O)C3O)C3COC(=O)C23)OCO4)cc(OC)c1O (stereo partly specified)
active: Potency [2] 5010 nM | Potency (7G8) 631 nM | Potency (AS120) 1000 nM | Potency (ATS95) 2510 nM | Potency (CP194) 1690 nM | Potency (CP211) 3380 nM | Potency (CP215) 4260 nM | Potency (CP217) 2000 nM | Potency (CP237) 2240 nM | Potency (CP238) 2000 nM | Potency (CP247) 2240 nM | Potency (CP256) 3160 nM | Potency (CP262) 8490 nM | Potency (CP265) 2820 nM | Potency (CP266) 4780 nM | Potency (CP286) 1260 nM | Potency (CP291) 4260 nM | Potency (CP297) 4780 nM | Potency (CP315) 3790 nM | Potency (CP325) 4780 nM | Potency (CP335) 1690 nM | Potency (DIV14) 1900 nM | Potency (DIV30) 2130 nM | Potency (Dd2) 1410 nM | Potency (ECU) 2510 nM | Potency (FAB9) 2240 nM | Potency (HB3) 3160 nM | Potency (JCK) 4470 nM
inconclusive: Potency [8] 287 nM [inhibitor, partial curve, poor fit] | Potency [9] 2510 nM
